# Measurements reported in PubChem BioAssay AID652243 (Drosophila RNAi Screening Center, 2013)
# Aim: 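Fly genes required for human androgen receptor driven transcription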 (primary screen)
# Cell system: Drosophila S2R+ cells
# Reagent: long dsRNA against Drosophila genes
# Timing: 72 h (48 h, then 24 h hormone)
# Challenge: synthetic androgen R1881 at 10 nM for 24 h
# Detection: 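Per-well raw luminescence of the androgen-driven firefly reporter and of the Renilla control, two replicates each, without normalisation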
# Direction: firefly reporter light: higher = more light from androgen-responsive reporter; Renilla control light: higher = more constitutive control signal (cell number, transfection)
# Hit rule: 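Hit when the log firefly-to-Renilla ratio dropped or increased by a fixed fold versus the mean of GFP or LacZ controls across duplicate plates; lowering cut given as 1.5 and as 3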
# Calls: active = hit: reporter lowered or raised; inactive = no hit
# The screen tested about 24,000 reagents; below is a random part of those with a known target gene and a result. Over the whole deposit, 246 (1%) were called active. 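Plates not normalised; calls are printed but the firefly/Renilla ratio behind them is not deposited; fold cut for lowering reported inconsistently.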 Raw values are not corrected between plates. A plus sign joins genes that one reagent is predicted to hit. The record does not give: the amount of reagent.
gene,amplicon,"firefly reporter light, replicate 1","firefly reporter light, replicate 2","Renilla control light, replicate 1","Renilla control light, replicate 2",outcome
CG32262,DRSC08165,6.46e5,8.20e5,1.40e6,1.18e6,inactive
CG32262,DRSC29141,4.27e5,4.75e5,1.45e6,1.13e6,inactive
"ATPsynF (ATP synthase, subunit F)",DRSC04482,6.89e5,5.50e5,2.01e6,1.61e6,inactive
jing,DRSC04923,2.05e5,2.69e5,1.94e6,2.24e6,inactive
jing,DRSC05000,1.07e6,4.52e5,2.09e6,1.63e6,inactive
snoRNA:Psi28S-291 (ncRNA),DRSC37904,1.05e6,8.83e5,1.63e6,1.80e6,inactive
CG13561,DRSC04199,3.18e5,4.26e5,3.21e6,2.77e6,inactive
Acsl (Acyl-CoA synthetase long-chain),DRSC07252,1.17e6,1.60e6,1.16e6,1.17e6,inactive
nrv2 (nervana 2),DRSC00948,1.17e5,1.37e5,2.39e5,2.02e5,inactive
nrv2 (nervana 2),DRSC03383,8.49e5,1.10e6,1.45e6,1.88e6,inactive
fon (fondue),DRSC02507,9.59e5,7.41e5,1.35e6,1.34e6,inactive
Mur11Da (Mucin related 11Da),DRSC18960,8.60e5,1.92e5,6.35e5,1.70e5,inactive
CG33017,DRSC06573,41705,58326,8.23e5,8.23e5,inactive
CG33017,DRSC06574,36583,94444,1.05e6,1.05e6,inactive
CG4168,DRSC01447,3.10e5,3.62e5,5.53e5,6.05e5,inactive
CG4168,DRSC01933,1.07e6,1.26e6,1.43e6,1.33e6,inactive
CG4168,DRSC21319,7.24e5,7.31e5,2.42e6,1.63e6,inactive
CG4168,DRSC22789,4.59e5,8.62e5,9.73e5,1.53e6,inactive
X11L,DRSC19958,2.99e5,3.03e5,1.89e6,1.71e6,inactive
X11L,DRSC19959,3.64e5,4.19e5,4.53e6,4.66e6,active
X11L,DRSC25616,2.25e5,2.62e5,6.02e5,3.67e5,inactive
dtn (detonator),DRSC17939,2.10e5,2.89e5,1.59e6,1.39e6,inactive
dtn (detonator),DRSC29824,3.76e5,3.98e5,1.19e6,1.49e6,inactive
Tpst (Tyrosylprotein sulfotransferase),DRSC18989,5.59e5,1.54e5,5.84e5,1.69e5,inactive
Tpst (Tyrosylprotein sulfotransferase),DRSC19696,5.03e5,5.43e5,4.08e6,4.03e6,inactive
Tpst (Tyrosylprotein sulfotransferase),DRSC19723,1.15e5,1.27e5,3.25e6,4.15e6,inactive
Tpst (Tyrosylprotein sulfotransferase),DRSC24990,1.83e6,1.71e6,1.81e6,1.84e6,inactive
Tpst (Tyrosylprotein sulfotransferase),DRSC25122,8.12e5,6.16e5,8.89e5,6.31e5,inactive
Tpst (Tyrosylprotein sulfotransferase),DRSC25422,8.68e5,1.09e6,1.07e6,1.33e6,inactive
bw (brown),DRSC04005,3.36e5,2.65e5,6.53e5,5.75e5,inactive
bw (brown),DRSC04677,4.49e5,7.16e5,1.15e6,1.34e6,inactive
TwdlS (TweedleS),DRSC14737,1.47e5,1.24e5,1.51e6,1.61e6,inactive
Obsc (Obscurin),DRSC04301,5.65e5,5.68e5,3.42e6,3.78e6,inactive
Obsc (Obscurin),DRSC04302,1.17e6,7.48e5,1.74e6,1.63e6,inactive
Obsc (Obscurin),DRSC04303,1.40e5,1.69e5,1.32e6,9.24e5,inactive
Obsc (Obscurin),DRSC04430,1.69e5,76721,8.95e5,8.38e5,inactive
Obsc (Obscurin),DRSC22422,4.89e5,6.83e5,1.25e6,2.24e6,inactive
H2.0 (Homeodomain protein 2.0),DRSC03340,95888,62507,1.58e6,1.44e6,inactive
H2.0 (Homeodomain protein 2.0),DRSC22555,9.63e5,8.13e5,9.96e5,8.91e5,inactive
CG8838,DRSC00712,8.83e5,1.12e6,9.49e5,1.21e6,inactive
CG8838,DRSC27117,2.82e5,3.43e5,6.53e5,7.02e5,inactive
CG13564,DRSC04201,3.55e5,3.71e5,2.39e6,2.73e6,inactive
CG12817 + CG12420,DRSC22814,3.28e5,7.84e5,1.00e6,1.90e6,inactive
CG12917,DRSC06231,3.25e5,2.62e5,1.44e6,1.40e6,inactive
L (retired record),DRSC05966,30946,46146,9.18e5,9.18e5,inactive
L (retired record),DRSC25281,2.80e5,3.19e5,3.09e5,2.53e5,inactive
Naa30A (N(alpha)-acetyltransferase 30 A),DRSC23214,6.21e5,6.96e5,1.09e6,1.21e6,inactive
Naa30A (N(alpha)-acetyltransferase 30 A),DRSC30080,9.17e5,8.32e5,1.10e6,1.02e6,inactive
825-Oak + CG32214 + CG32213,DRSC27977,6.21e5,4.38e5,2.29e6,1.58e6,inactive
CG33632,DRSC37817,9.37e5,5.98e5,1.37e6,8.40e5,inactive

Targets above whose target name starts with A or a (2):
gene,amplicon,"firefly reporter light, replicate 1","firefly reporter light, replicate 2","Renilla control light, replicate 1","Renilla control light, replicate 2",outcome
"ATPsynF (ATP synthase, subunit F)",DRSC04482,6.89e5,5.50e5,2.01e6,1.61e6,inactive
Acsl (Acyl-CoA synthetase long-chain),DRSC07252,1.17e6,1.60e6,1.16e6,1.17e6,inactive

The results go on:
gene,amplicon,"firefly reporter light, replicate 1","firefly reporter light, replicate 2","Renilla control light, replicate 1","Renilla control light, replicate 2",outcome
Cpr92F (Cuticular protein 92F),DRSC15819,3.59e5,3.73e5,3.74e6,4.48e6,inactive
CG32085,DRSC10138,3.11e5,3.17e5,3.23e6,2.54e6,inactive
CG32085,DRSC10139,2.15e5,2.34e5,2.65e6,2.01e6,inactive
CG32085,DRSC10576,1.33e5,1.14e5,1.78e6,1.49e6,inactive
Cyp6g2 (Cytochrome P450 6g2),DRSC07387,2.21e5,1.44e5,1.47e6,1.35e6,inactive
Cyp6g2 (Cytochrome P450 6g2),DRSC29325,3.46e5,4.56e5,9.25e5,9.25e5,inactive
CG18088,DRSC02654,2.07e5,1.21e5,1.26e6,1.05e6,inactive
CtsL4 (Cathepsin L4),DRSC02849,1.96e5,3.20e5,1.51e6,1.57e6,inactive
l(2)k09913 (lethal (2) k09913),DRSC04699,4.26e5,3.71e5,1.36e6,1.20e6,inactive
Jabba,DRSC06521,1.06e6,1.28e6,1.53e6,2.17e6,inactive
Jabba,DRSC37792,5.93e5,4.39e5,1.33e6,9.13e5,inactive
CG11581,DRSC19407,1.06e6,9.11e5,4.77e6,4.65e6,inactive
Ino80 (INO80 complex subunit),DRSC14760,2.67e5,1.86e5,3.22e6,2.36e6,inactive
Ino80 (INO80 complex subunit),DRSC15333,2.28e5,2.61e5,2.18e6,2.12e6,inactive
Ino80 (INO80 complex subunit),DRSC15501,2.05e5,2.43e5,3.24e6,2.41e6,inactive
CG12299,DRSC02158,1.28e6,5.44e5,1.12e6,7.60e5,inactive
CG12299,DRSC23611,1.38e6,1.32e6,1.29e6,1.44e6,inactive
CG12299,DRSC39017,6.61e5,4.08e5,1.97e6,1.01e6,inactive
mora (morgana),DRSC16594,1.64e5,2.74e5,2.17e6,2.64e6,inactive
Ir40a (Ionotropic receptor 40a),DRSC03732,2.36e5,2.79e5,1.42e6,1.34e6,inactive
Ir40a (Ionotropic receptor 40a),DRSC03733,2.41e5,2.66e5,1.53e6,1.13e6,inactive
Sema5c (Semaphorin 5c),DRSC11279,95628,69786,2.82e6,2.30e6,active
Sema5c (Semaphorin 5c),DRSC26621,4.02e5,3.15e5,4.44e5,4.51e5,inactive
SKIP (Shal K[+] channel interacting protein),DRSC14713,2.33e5,2.40e5,3.93e6,3.53e6,inactive
SKIP (Shal K[+] channel interacting protein),DRSC14714,2.57e5,2.55e5,3.34e6,3.95e6,inactive
SKIP (Shal K[+] channel interacting protein),DRSC15864,2.50e5,2.38e5,3.33e6,3.28e6,inactive
SKIP (Shal K[+] channel interacting protein),DRSC16195,5.49e5,5.33e5,1.69e6,1.53e6,inactive
SKIP (Shal K[+] channel interacting protein),DRSC16196,3.69e5,3.08e5,3.13e6,2.28e6,inactive
